Source: PubChem BioAssay AID248 (DTP/NCI, 2004)
The list does not hold the whole screen: it gathers tests that were run many times, whatever their T/C, doses with no T/C, and many T/C values between a quarter and a half above the control. Further doses and runs are listed elsewhere. T/C is the treated group as % of the vehicle group. Some doses have a count of surviving animals in place of a T/C: the source holds a T/C of zero for them, seemingly a mark for toxic or unscored doses. Some doses without a T/C left all or most animals alive at the check, yet need not have been tolerated: survival well below the control is almost never listed, so the zero probably covers shortened survival too. Counts of survivors are from the toxicity check (mostly the fifth day) where no day follows; animals may have died later. Schedule codes are those of the source, read here as Q, the interval in days (D) or hours (H), X, the number of doses. Some entries were tested several times; the values are given in rising order. Where survival is the endpoint, this PubChem deposit counts one and a half times the control or more as active, and values a quarter to a half above the control carry no call in these data; other NCI protocols may use other cut-offs.

Tested on: L1210 leukemia ip in BDF1 mice, survival T/C
Test: NCI In Vivo Anticancer Drug Screen. Data for tumor model L1210 Leukemia (intraperitoneal) in B6D2F1 (BDF1) mice
Conditions: T/C endpoint: mean survival time, higher T/C = longer survival
[1] = dose: 200.0 mg/kg/injection, schedule: Q04DX003 (ip), vehicle: saline with Tween-80
[2] = dose: 400.0 mg/kg/injection, schedule: Q01DX009 (ip), vehicle: Klucel (hydroxypropylcellulose) (HPC)

C1=C(c2ccccc2)C(c2ccccc2)c2ccccc21 (centres undefined)
survivor count (dose: 100.0 mg/kg/injection, schedule: Q04DX003 (ip), vehicle: saline with Tween-80): 5 of 6
survivor count [1]: 6 of 6

CCCCCCCCCC(=O)NO
survivor count (dose: 400.0 mg/kg/injection, schedule: Q01DX009 (ip), vehicle: saline): 4 of 4

Nc1ncnc2c(C3OC(CO)C(O)C3O)[nH]nc12 (centres undefined)
survivor count (dose: 50.0 mg/kg/injection, schedule: Q01DX009 (ip), vehicle: saline with Tween-80): 6 of 6
survivor count (dose: 90.0 mg/kg/injection, schedule: Q04DX003 (ip), vehicle: saline with Tween-80): 6 of 6
survivor count (dose: 100.0 mg/kg/injection, schedule: Q01DX009 (ip), vehicle: saline with Tween-80): 4 of 6
survivor count (dose: 200.0 mg/kg/injection, schedule: Q01DX001 (ip), vehicle: saline): 2 of 4
survivor count (dose: 200.0 mg/kg/injection, schedule: Q01DX009 (ip), vehicle: saline with Tween-80): 1 of 6
T/C [1]: 127 % of control
survivor count [1]: 5 of 6
survivor count (dose: 400.0 mg/kg/injection, schedule: Q01DX001 (ip), vehicle: carboxymethylcellulose (CMC)): 1 of 4
survivor count (dose: 400.0 mg/kg/injection, schedule: Q01DX001 (ip), vehicle: saline): 2 of 4
survivor count (dose: 400.0 mg/kg/injection, schedule: Q04DX003 (ip), vehicle: saline with Tween-80): 2 of 6

O=C1Nc2nc(=O)nc3[nH]c(=O)nc(n23)N1
survivor count (dose: 150.0 mg/kg/injection, schedule: Q01DX009 (ip), vehicle: saline): 1 of 6
survivor count (dose: 200.0 mg/kg/injection, schedule: Q04DX003 (ip), vehicle: saline): 1 of 6
survivor count (dose: 225.0 mg/kg/injection, schedule: Q01DX009 (ip), vehicle: saline): 0 of 6
survivor count (dose: 335.0 mg/kg/injection, schedule: Q01DX009 (ip), vehicle: saline): 0 of 6
survivor count (dose: 400.0 mg/kg/injection, schedule: Q04DX003 (ip), vehicle: saline): 0 of 6

CCCCCCCCCCCCCC(=O)N(CC)CC
survivor count (dose: 400.0 mg/kg/injection, schedule: Q01DX009 (ip), vehicle: carboxymethylcellulose (CMC)): 3 of 3 and 6 of 6

CCN(CC)CCOC(=O)C1CC1(c1ccccc1)c1ccccc1 (centres undefined)
survivor count (dose: 200.0 mg/kg/injection, schedule: Q01DX009 (ip), vehicle: Klucel (hydroxypropylcellulose) (HPC)): 0 of 6
survivor count [2]: 0 of 6

COc1ccc(C(=S)N(C)NC(=O)CC(=O)NN(C)C(=S)c2ccc(OC)cc2)cc1
survivor count (dose: 400.0 mg/kg/injection, schedule: Q01DX009 (ip), vehicle: gum acacia): 2 of 6

c1ccc(P(=NC2CCCCCC2)(c2ccccc2)c2ccccc2)cc1
survivor count (dose: 400.0 mg/kg/injection, schedule: Q01DX001 (ip), vehicle: acetone): 3 of 6

CCCCCCCCCCCSc1ccc2ccccc2c1
survivor count (dose: 400.0 mg/kg/injection, schedule: Q01DX001 (ip), vehicle: Klucel (hydroxypropylcellulose) (HPC)): 6 of 6

C=CS(=O)(=O)Cc1ccc(Cl)cc1
survivor count (dose: 100.0 mg/kg/injection, schedule: Q04DX002 (ip), vehicle: Klucel (hydroxypropylcellulose) (HPC)): 0 of 3
survivor count (dose: 200.0 mg/kg/injection, schedule: Q04DX002 (ip), vehicle: Klucel (hydroxypropylcellulose) (HPC)): 0 of 3
survivor count (dose: 400.0 mg/kg/injection, schedule: Q04DX002 (ip), vehicle: Klucel (hydroxypropylcellulose) (HPC)): 0 of 3

CCOC(=O)c1ccc(NC(=O)Nc2cc(Cl)ccc2C)cc1
survivor count [2]: 2 of 6

CCCC(=O)Nc1cc(C)ccc1N=Nc1ccc(C)cc1
survivor count (dose: 400.0 mg/kg/injection, schedule: Q01DX009 (ip), vehicle: saline with Tween-80): 6 of 6
survivor count (dose: 400.0 mg/kg/injection, schedule: Q04DX002 (ip), vehicle: saline with Tween-80): 6 of 6

CCCCCC(C)NCCOC(=O)c1ccc(N)cc1 (centres undefined)
survivor count (dose: 150.0 mg/kg/injection, schedule: Q01DX001 (ip), vehicle: other): 0 of 6
survivor count (dose: 300.0 mg/kg/injection, schedule: Q01DX001 (ip), vehicle: other): 0 of 6

C#CCCCCC#[C][Hg][C]#CCCCCC#C
survivor count (dose: 150.0 mg/kg/injection, schedule: Q01DX001 (ip), vehicle: saline): 1 of 6
survivor count (dose: 300.0 mg/kg/injection, schedule: Q01DX001 (ip), vehicle: saline): 1 of 6
